## Library screen at single concentrations

By UniProt entry, the sequences of proteins in these tests, tags left out. Residues count along the entry.
UniProt P9WFT3, whole entry: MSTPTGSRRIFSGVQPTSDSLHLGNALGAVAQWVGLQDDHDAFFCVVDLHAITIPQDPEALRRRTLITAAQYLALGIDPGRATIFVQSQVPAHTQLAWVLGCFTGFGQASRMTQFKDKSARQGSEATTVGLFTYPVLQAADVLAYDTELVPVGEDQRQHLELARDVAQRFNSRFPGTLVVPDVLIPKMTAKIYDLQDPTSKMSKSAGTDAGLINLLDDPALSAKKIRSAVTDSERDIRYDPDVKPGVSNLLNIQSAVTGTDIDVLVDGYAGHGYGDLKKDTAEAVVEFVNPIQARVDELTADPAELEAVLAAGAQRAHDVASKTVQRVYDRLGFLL
UniProt P9WPC5, whole entry: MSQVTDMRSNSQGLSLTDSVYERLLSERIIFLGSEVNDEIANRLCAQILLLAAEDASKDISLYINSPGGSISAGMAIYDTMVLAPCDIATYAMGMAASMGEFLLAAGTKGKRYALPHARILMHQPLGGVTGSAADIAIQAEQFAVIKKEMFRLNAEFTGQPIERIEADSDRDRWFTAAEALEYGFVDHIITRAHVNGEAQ
UniProt P9WPC3, whole entry partner: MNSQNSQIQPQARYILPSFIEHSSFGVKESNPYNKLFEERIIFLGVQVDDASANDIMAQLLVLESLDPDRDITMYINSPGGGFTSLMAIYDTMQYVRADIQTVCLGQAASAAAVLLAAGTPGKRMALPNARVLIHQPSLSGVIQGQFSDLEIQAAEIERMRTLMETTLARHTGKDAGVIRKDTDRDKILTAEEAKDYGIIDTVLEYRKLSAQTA
UniProt I6X8D2, whole entry: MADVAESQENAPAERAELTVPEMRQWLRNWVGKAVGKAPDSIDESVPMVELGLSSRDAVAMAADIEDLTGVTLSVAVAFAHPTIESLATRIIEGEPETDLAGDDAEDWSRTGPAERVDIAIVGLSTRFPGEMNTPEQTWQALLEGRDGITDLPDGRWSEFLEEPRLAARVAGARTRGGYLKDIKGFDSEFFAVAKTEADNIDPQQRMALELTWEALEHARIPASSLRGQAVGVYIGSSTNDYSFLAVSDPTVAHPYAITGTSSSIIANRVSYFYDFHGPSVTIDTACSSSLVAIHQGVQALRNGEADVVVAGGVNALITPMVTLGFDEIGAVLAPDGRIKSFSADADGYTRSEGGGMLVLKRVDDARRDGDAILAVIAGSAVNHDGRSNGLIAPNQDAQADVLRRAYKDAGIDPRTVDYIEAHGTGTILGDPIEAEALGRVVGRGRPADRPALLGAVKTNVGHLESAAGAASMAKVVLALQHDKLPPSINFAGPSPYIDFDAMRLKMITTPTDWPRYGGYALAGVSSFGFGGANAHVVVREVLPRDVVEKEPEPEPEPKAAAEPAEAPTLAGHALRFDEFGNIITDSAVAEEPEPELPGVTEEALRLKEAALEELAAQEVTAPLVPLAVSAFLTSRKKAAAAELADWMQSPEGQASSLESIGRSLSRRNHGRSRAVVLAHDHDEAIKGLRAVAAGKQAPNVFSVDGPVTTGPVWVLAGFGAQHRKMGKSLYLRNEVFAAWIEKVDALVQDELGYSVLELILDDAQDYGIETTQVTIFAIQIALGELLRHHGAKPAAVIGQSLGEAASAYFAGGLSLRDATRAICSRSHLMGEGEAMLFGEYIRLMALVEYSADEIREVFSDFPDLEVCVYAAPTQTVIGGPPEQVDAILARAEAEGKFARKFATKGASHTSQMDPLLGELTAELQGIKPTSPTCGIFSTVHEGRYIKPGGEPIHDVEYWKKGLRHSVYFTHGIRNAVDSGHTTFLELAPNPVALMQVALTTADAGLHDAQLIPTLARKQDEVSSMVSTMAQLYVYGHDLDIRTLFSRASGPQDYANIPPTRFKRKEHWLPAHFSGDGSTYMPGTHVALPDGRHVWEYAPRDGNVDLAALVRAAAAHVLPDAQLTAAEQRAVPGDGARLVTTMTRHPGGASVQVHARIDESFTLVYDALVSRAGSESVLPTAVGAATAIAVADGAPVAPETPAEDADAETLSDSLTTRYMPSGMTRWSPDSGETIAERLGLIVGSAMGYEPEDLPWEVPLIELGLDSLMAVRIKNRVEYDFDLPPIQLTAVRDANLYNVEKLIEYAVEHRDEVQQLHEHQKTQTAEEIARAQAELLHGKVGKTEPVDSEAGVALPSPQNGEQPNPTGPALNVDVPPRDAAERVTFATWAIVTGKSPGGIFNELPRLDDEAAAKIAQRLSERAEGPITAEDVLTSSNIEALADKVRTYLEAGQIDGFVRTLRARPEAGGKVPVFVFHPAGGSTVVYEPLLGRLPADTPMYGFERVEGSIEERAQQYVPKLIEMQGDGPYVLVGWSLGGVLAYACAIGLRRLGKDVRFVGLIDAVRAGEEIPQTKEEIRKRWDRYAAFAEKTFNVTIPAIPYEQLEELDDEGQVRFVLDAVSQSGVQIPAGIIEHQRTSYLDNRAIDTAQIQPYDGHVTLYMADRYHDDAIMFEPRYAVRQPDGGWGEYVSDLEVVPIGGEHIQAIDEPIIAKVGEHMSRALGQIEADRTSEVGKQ
UniProt Q8IDJ8, 1-583: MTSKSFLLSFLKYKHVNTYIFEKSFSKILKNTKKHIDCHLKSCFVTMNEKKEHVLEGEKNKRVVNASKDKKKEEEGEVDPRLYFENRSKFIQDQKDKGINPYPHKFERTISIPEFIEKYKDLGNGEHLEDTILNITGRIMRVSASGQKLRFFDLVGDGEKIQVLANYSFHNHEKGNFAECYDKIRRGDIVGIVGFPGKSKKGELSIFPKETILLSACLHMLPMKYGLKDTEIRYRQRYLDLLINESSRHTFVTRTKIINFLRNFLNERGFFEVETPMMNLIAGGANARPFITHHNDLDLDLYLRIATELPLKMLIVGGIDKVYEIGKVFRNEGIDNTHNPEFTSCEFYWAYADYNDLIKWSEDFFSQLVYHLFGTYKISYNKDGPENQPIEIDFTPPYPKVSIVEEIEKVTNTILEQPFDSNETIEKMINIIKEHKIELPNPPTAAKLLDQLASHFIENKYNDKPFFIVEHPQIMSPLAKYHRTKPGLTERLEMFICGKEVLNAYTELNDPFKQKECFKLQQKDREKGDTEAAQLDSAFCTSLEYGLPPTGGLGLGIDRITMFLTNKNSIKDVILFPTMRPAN

Values are the deposited “Percent Effect”, in %.
The record does not define 0% and 100%; most values in the screen are far below 50% and negative numbers occur (in some assays of this library far below -100).
The compounds are a random part of those screened.
A dash means the value is not listed here; it may have been measured.

A: 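Tryptophan-tRNA ligase, Mycobacterium tuberculosis (UniProt P9WFT3). Enzyme assay of tryptophanyl-tRNA synthetase; the read-out is not stated. Concentration: 10 µM. Higher most likely means stronger inhibition; the record gives no direction and few retests gave an IC50. About 65,000 compounds were tested under these conditions; 0.098% (about 64) showed 50% or more at least once.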
B: 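Protease assay of ClpP1P2, read by the AMC dye that it sets free. Target: ClpP1P2, Mycobacterium tuberculosis (UniProt P9WPC5 and UniProt P9WPC3). Tested at 50 µM. Direction is inferred from only a few compounds that gave an IC50; most scored high, so higher reads as stronger inhibition. Most other retested compounds had strongly negative values. Of about 69,000 compounds tested this way, about 10 (0.015%) reached 50% or more in at least one test.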
C: 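Polyketide synthase Pks13, Mycobacterium tuberculosis (UniProt I6X8D2). Enzyme assay of the thioesterase domain of polyketide synthase 13; the read-out is not stated. Tested at 30 µM. Higher reads as stronger inhibition (inferred from which compounds were picked for retests). Size under these conditions: about 67,000 compounds, about 300 of them at 50% or above in at least one test.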
D: 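Enzyme assay of the cytosolic lysyl-tRNA synthetase in 384-well plates, read by luminescence. Target: Lysine-tRNA ligase, Plasmodium falciparum 3D7 (UniProt Q8IDJ8). Compounds at 30 µM. Higher reads as stronger inhibition, judged from the few compounds that gave an IC50. Of about 69,000 compounds tested this way, about 49 (0.071%) reached 50% or more in at least one test.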

| # | SMILES | A | B | C | D |
|---|---|---|---|---|---|
| 1 | `COCC1CC2(CCN(C(=O)c3occc3C)CC2)CN1C(C)C` (stereo not drawn) | 18.49% | -5.223% | -49.64% | -0.8756% |
| 2 | `Cc1occc1C(=O)N1CCC2(CC1)CN(Cc1nccs1)CCO2` | 18.39% | -8.172% | 0.2363% | 7.014% |
| 3 | `Cc1ccc(S(=O)(=O)N2CCC(N3CCCCC3)CC2)cc1C` | -1.499% | 7.488% | -6.038% | 0.07387% |
| 4 | `c1ccc(-c2nnc(CNCC3CCCN3c3cccnn3)o2)cc1` (stereo not drawn) | -2.02% | 12.81% | -38.65% | -2.598% |
| 5 | `CCOc1ccccc1C(=O)NC(CC(=O)O)c1cccs1` (stereo not drawn) | -4.473% | 4.249% | -9.496% | 1.11% |
| 6 | `COCC(=O)N1CCCC1c1ccc(C(=O)NCc2ccccc2Cl)s1` (stereo not drawn) | 7.241% | -11.54% | -19.56% | 5.082% |
| 7 | `CNC(=O)C1CCCN1c1nc(C)c2ccccc2n1` (stereo not drawn) | 1.838% | -126.5% | -5.637% | 2.998% |
| 8 | `CC1CN(CC(=O)Nc2nccs2)CCN1Cc1nccn1C` (stereo not drawn) | 3.193% | -19.15% | -7.3% | 1.811% |
| 9 | `CN(CC(O)C1CC1)C(=O)Nc1cc(F)cc(Br)c1` (stereo not drawn) | 12.44% | -8.176% | 10% | -1.279% |
| 10 | `O=C(c1ccncc1)N1Cc2ccccc2OC2(CCOCC2)C1` | 3.261% | 4.59% | -43.59% | 4.294% |
| 11 | `N#CCCN(CC1CCCO1)C(=O)c1ccc2nonc2c1` (stereo not drawn) | - | -18% | -14.75% | 3.359% |
| 12 | `Cc1cccc(C)c1OC1CN(Cc2cnc(N3CCCC3)nc2)C1` | -1.837% | 7.582% | -14.5% | 2.798% |
| 13 | `CN(C)c1cccc(C(=O)NCC2(O)CCOCC2)c1` | -7.143% | -8.792% | -9.12% | 7.978% |
| 14 | `CC(C)c1n[nH]c(C2CN(CCCS(C)(=O)=O)CCO2)n1` (stereo not drawn) | 3.45% | -10.82% | -10.86% | -1.527% |
| 15 | `CCCNC(=O)C1CCN(CC(O)c2ccc(C(F)(F)F)cc2)CC1` (stereo not drawn) | -1.135% | -7.565% | -38.71% | 6.883% |
| 16 | `CC(=O)N[C@@H]1CN(Cc2ccccc2C(=O)O)C[C@H]1C(C)C` | 0.8704% | -1.359% | -34.29% | 4.468% |
| 17 | `COc1cccc(S(=O)(=O)NC(=O)c2c(C)noc2C(C)C)c1` | 0% | -8.58% | 4.151% | 1.83% |
| 18 | `CCS(=O)(=O)N1CCCC2(CCCN2C(=O)c2cscn2)C1` (stereo not drawn) | 0.8765% | -3.132% | - | -0.3369% |
| 19 | `CN(C(=O)Cn1nc(-c2cccs2)ccc1=O)C1CCS(=O)(=O)C1` (stereo not drawn) | 4.343% | 2.488% | -25.9% | -7.046% |
| 20 | `CCn1cc(Cl)c(C(=O)NCCCO)n1` | -2.72% | 0.1594% | -7.052% | 6.08% |
| 21 | `Cc1nnc(SCCCNC(=O)c2ccc3c(c2)OCO3)s1` | -2.147% | -13.96% | 0.9621% | 1.894% |
| 22 | `Cc1ccc(-c2cc(CNC(=O)NC3CCCCNC3=O)on2)cc1` (stereo not drawn) | 4.021% | -2.507% | -4.123% | 7.074% |
| 23 | `CN(Cc1ccc(F)cc1)C(=O)CN1CCCCC1Cn1cncn1` (stereo not drawn) | -2.291% | -6.033% | -16.35% | -1.309% |
| 24 | `Cc1nnc(NC(=O)N2CCC(N3CCCCC3)CC2)s1` | -0.3458% | 4.935% | -9.415% | 2.254% |
| 25 | `O=C1CC(C(=O)O)C2(CCN(C(=O)NCc3ccc(Cl)cc3)CC2)N1` (stereo not drawn) | 0.9726% | 6.041% | -35.21% | -2.796% |
| 26 | `Cc1cnn(CC2CN(Cc3ccc(-n4cccn4)cc3)CCO2)c1` (stereo not drawn) | -14.44% | -6.773% | - | 1.25% |
| 27 | `Cn1cc(-c2cnc(N3CCCC3)nc2)cc1C(=O)N1CCOCC1` | 5.118% | -11.61% | 10.54% | 1.78% |
| 28 | `Cc1nnc(NC(=O)CN2CCOC(Cn3cccn3)C2)s1` (stereo not drawn) | -0.4068% | 1.139% | -8.441% | 20.07% |
| 29 | `CC(C)Cn1c(=O)n(CCCn2cccn2)c2cc(C(=O)O)cnc21` | 3.344% | 1.691% | -5.136% | 1.098% |
| 30 | `CC(NCCn1cccn1)c1ccc(F)cc1F` (stereo not drawn) | -5.202% | 0.6584% | -26.53% | 1.652% |
| 31 | `CCc1cnc(N2CC[C@H]3[C@H]2CC(=O)N3c2cccnc2)nc1` | 5.533% | 3.271% | -38.3% | 13.29% |
| 32 | `Cc1ccc(N2CC[C@H]3C[C@H](C(=O)NCc4ccco4)O[C@H]3C2)nn1` | -1.862% | -8.139% | -11.39% | -1.321% |
| 33 | `COCCC(Cc1cccc(Br)c1)C(=O)O` (stereo not drawn) | -0.154% | -2.56% | -8.891% | 1.692% |
| 34 | `Cc1nc2ccc(-n3ncnc3[C@@H]3CCCN3S(C)(=O)=O)cc2s1` | 6.11% | 11.97% | 35.92% | -1.729% |
| 35 | `c1cnc(N2CCN(CCn3ccnc3-c3ccncc3)CC2)nc1` | 5.636% | -8.638% | -27.95% | -1.752% |
| 36 | `O=C(Cc1cccs1)N1CCOCC1CO` (stereo not drawn) | -3.267% | -5.832% | -10.67% | 3.814% |
| 37 | `CCC[C@@H]1CN(Cc2cc(C#N)n(C)c2C)C[C@H]1NS(C)(=O)=O` | 0.2681% | 8.136% | -4.957% | 2.5% |
| 38 | `O=C(C1=CCCC1)N1CCO[C@H]2[C@@H](OCC3CC3)CC[C@@H]21` | 0.1049% | 11.15% | -8.982% | -3.299% |
| 39 | `Cc1cc(NC(=O)C(C)N2CCCN(c3nccs3)CC2)on1` (stereo not drawn) | 0.9651% | 5.984% | -20.6% | -1.125% |
| 40 | `Cc1noc(C2CCN(Cc3cc(=O)n(C)c(=O)n3C)CC2)n1` | -1.943% | 6.102% | -3.211% | 8.243% |
| 41 | `CN(CC(=O)NCCC#N)C(c1ccccc1)c1ccccc1` | -1.906% | 5.556% | -2.183% | 9.475% |
| 42 | `COC(=O)c1cc(OC)c(OC)cc1NCc1c(C)noc1C` | 1.342% | 3.687% | -18.11% | 3.907% |
| 43 | `O=C(COc1ccc2c(c1)CCC2)N1CCCC(n2cccn2)C1` (stereo not drawn) | -1.871% | 13.01% | 15.99% | 4.051% |
| 44 | `Cc1nc(N2C[C@H]3CNC[C@H]3C2)c2sccc2n1` | -1.615% | 0.4766% | -25.62% | 1.421% |
| 45 | `CC(C)(C)c1nc(CN2CCN(C(=O)c3cnccn3)CC2)cs1` | -0.1935% | -18.65% | -9.373% | 0.01962% |
| 46 | `NC(=O)CN1CCOCC(Cc2cccc(F)c2)C1` (stereo not drawn) | - | -3.734% | 1.858% | -0.03803% |
| 47 | `CCS(=O)(=O)NCC1OCCc2cn(CC3CCOCC3)nc21` (stereo not drawn) | 12.62% | 14.7% | -12.86% | -2.441% |
| 48 | `Cn1cc(Br)c(=O)c(NS(=O)(=O)c2ccc3c(c2)CCC3)c1` | -1.755% | -5.769% | -14.35% | -0.08293% |
| 49 | `Cc1cccc(C)c1OCC(=O)NS(=O)(=O)c1c(C)noc1C` | -5.882% | -7.88% | -4.901% | 1.185% |
| 50 | `Fc1ccc(CNCCn2cccn2)c(F)c1` | 1.864% | -0.3651% | -4.645% | -0.9042% |
| 51 | `CNC(=O)c1ccc(CN(C(=O)c2scnc2C)C2CC2)cc1` | -5.122% | 4.24% | -11.2% | -5.838% |
| 52 | `Fc1ccccc1Cc1noc(CN2CC[C@@H]3CCCC[C@H]3C2)n1` | 2.26% | -16.14% | -29.11% | 7.779% |
| 53 | `COCC(=O)N1CCC(c2cncc(-c3cccc(F)c3)n2)CC1` | - | -13.54% | 3.451% | 0.6009% |
| 54 | `Cc1nc(NC2CCN(S(=O)(=O)c3ccccc3)CC2)[nH]c(=O)c1C` | -10.56% | -28.81% | -8.259% | 0.331% |
| 55 | `CCOCc1ncn2c1CN(C(=O)Nc1ccccc1)CC2` | -1.866% | 0.606% | -26.07% | 5.498% |
| 56 | `COc1ccc(CN2CCCC3(CCN(c4ccsc4)C3=O)C2)cc1` (stereo not drawn) | -4.229% | -5.017% | -29.19% | -0.2026% |
| 57 | `Cc1cc(CN(C)C(=O)NC2CCCN(c3ncccn3)C2)no1` (stereo not drawn) | 0.3145% | 15.81% | -5.368% | 3.359% |
| 58 | `CCOc1ccc(CN2CCN(C(=O)c3cc(C4CC4)[nH]n3)CC2)cc1` | -5.814% | 12.34% | -5.773% | 7.919% |
| 59 | `CC(C)c1cc(NCC2(N3CCOCC3)CCCCC2)ncn1` | -7.531% | 16.2% | -27.92% | -2.34% |
| 60 | `c1nc(CCC2CCCN2)cc(N2CCCOCC2)n1` (stereo not drawn) | -3.93% | 0.8994% | -16.08% | -0.1148% |
| 61 | `Cc1ccc(N2CCN(C(=O)COc3ncccn3)CC2)nn1` | 3.888% | -8.978% | -12.74% | 3.486% |

4 of the entries, repeated:

SMILES	A	B	C	D
CNC(=O)c1ccc(CN(C(=O)c2scnc2C)C2CC2)cc1	-5.122%	4.24%	-11.2%	-5.838%
O=C(COc1ccc2c(c1)CCC2)N1CCCC(n2cccn2)C1 (stereo not drawn)	-1.871%	13.01%	15.99%	4.051%
Cc1nnc(SCCCNC(=O)c2ccc3c(c2)OCO3)s1	-2.147%	-13.96%	0.9621%	1.894%
CC(C)c1cc(NCC2(N3CCOCC3)CCCCC2)ncn1	-7.531%	16.2%	-27.92%	-2.34%

Measurements from “University of Dundee, Small-Polar-MMV Screening Library” (2021), ChEMBL document CHEMBL3988442.